## Results of single-concentration screens

Amino acid sequences for entries named in this document (tags omitted). Residues count along the entry.
UniProt Q8IDJ8, 1-583: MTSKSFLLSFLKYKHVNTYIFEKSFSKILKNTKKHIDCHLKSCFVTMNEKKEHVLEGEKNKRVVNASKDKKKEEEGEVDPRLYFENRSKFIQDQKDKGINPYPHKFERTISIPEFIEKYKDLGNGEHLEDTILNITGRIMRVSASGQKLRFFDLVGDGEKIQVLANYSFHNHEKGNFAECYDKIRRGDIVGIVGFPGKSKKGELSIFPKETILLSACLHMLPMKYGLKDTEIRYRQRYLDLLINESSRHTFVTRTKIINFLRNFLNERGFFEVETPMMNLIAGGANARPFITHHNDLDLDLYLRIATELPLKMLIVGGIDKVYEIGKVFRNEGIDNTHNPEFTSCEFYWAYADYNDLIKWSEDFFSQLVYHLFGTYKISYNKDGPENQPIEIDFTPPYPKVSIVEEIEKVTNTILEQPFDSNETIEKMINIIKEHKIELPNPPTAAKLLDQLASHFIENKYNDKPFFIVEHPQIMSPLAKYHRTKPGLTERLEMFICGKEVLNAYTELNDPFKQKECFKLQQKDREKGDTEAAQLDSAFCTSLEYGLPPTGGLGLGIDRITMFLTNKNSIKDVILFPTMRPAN
UniProt A4I591, 1-473: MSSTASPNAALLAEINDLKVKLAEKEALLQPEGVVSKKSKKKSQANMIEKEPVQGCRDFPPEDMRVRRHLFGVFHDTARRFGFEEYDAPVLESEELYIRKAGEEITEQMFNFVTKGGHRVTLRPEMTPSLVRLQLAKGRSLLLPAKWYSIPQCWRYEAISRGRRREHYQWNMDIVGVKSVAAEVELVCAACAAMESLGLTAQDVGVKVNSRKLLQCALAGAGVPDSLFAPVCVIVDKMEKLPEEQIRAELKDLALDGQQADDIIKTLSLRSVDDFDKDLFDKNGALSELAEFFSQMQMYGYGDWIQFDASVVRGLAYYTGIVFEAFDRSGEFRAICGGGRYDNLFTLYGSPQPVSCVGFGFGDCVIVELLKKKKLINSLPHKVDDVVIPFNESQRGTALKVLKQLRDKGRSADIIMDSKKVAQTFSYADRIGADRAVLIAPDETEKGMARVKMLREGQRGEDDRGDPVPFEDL

The values are deposited in ChEMBL (CHEMBL3988442, “University of Dundee, Small-Polar-MMV Screening Library” (2021)).

The filed quantity is “Percent Effect” (%). The controls that fix the scale are not given in the record; negative values are as filed. Compounds were drawn at random from those tested, without regard to their results. A dash means the value is not listed here; it may have been measured.

T. brucei: 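Whole-parasite assay of Trypanosoma brucei over 72 hours; the read-out is not stated. Tested at 30 µM. Higher reads as stronger inhibition (inferred: compounds with an IC50 in retests scored well above the rest). Values scatter widely below zero; nearly all retest evidence comes from the higher of the two concentrations used. About 64,000 compounds were tested under these conditions; 1.5% (about 940) showed 50% or more at least once.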
PfKRS1: 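Lysine-tRNA ligase, Plasmodium falciparum 3D7 (UniProt Q8IDJ8). Enzyme assay of the cytosolic lysyl-tRNA synthetase in 384-well plates, read by luminescence. Compounds at 30 µM. Direction is inferred from only a few compounds that gave an IC50; most scored high, so higher reads as stronger inhibition. Size under these conditions: about 69,000 compounds, about 49 of them at 50% or above in at least one test.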
LiHisRS: 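Histidine-tRNA ligase, Leishmania infantum (UniProt A4I591). Enzyme assay of histidyl-tRNA synthetase; the read-out is not stated. Concentration: 30 µM. The record gives no direction; compounds that gave an IC50 in retests scored well above the rest, so higher reads as stronger inhibition. The assay is labelled LdHisRS but filed under L. infantum. Of about 69,000 compounds tested this way, about 410 (0.6%) reached 50% or more in at least one test.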
Toxoplasma: 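Assay of Toxoplasma gondii numbers, read through their beta-galactosidase reporter with a colour substrate. Compounds at 10 µM. Higher reads as fewer parasites (inferred from which compounds were picked for retests). Of about 67,000 compounds tested this way, about 260 (0.38%) reached 50% or more in at least one test.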

For CCN1CCN(C)C(=O)C12CCN(Cc1cccc(C)c1)CC2 the result was PfKRS1: 0.39%; LiHisRS: 5.825%. Cc1cc(N2CCCN(C(=O)Cc3csc(C)n3)CC2)ccn1 gave T. brucei: -11.66%; PfKRS1: -0.3932%; LiHisRS: 17.31%; Toxoplasma: -4.962%. CCCn1ccnc1-c1cccc(NC2CCOC2)c1 (configuration not stated) gave T. brucei: -82.74%; PfKRS1: 10.83%; LiHisRS: 17.7%; Toxoplasma: 9.28%. Result for O=C(O)C(F)(F)F.[H][C@@]12CCCO[C@]1([H])[C@H](NC(=O)N(C)C)CN2Cc1ccc2c(c1)OCO2 was T. brucei: 22.82%; Toxoplasma: 4.06%. With COC(=O)c1cccc2nc([C@H]3CCN(Cc4ccccc4C)C3)oc12 the screen gave T. brucei: 16.57%; PfKRS1: 6.068%; LiHisRS: 18.92%; Toxoplasma: 10.49%. COC(=O)c1oc(CNC(C)(C)CO)cc1C gave T. brucei: -11.22%; PfKRS1: 0.02489%; LiHisRS: 19.05%; Toxoplasma: 5.251%.

Cc1occc1C(=O)N1CCCC(C2=Nc3ccccc3S(=O)(=O)N2)C1 (configuration not stated) read T. brucei: 31.56%; PfKRS1: 0.7054%; LiHisRS: 12.59%; Toxoplasma: -23.67%. Cn1cc(CN2CC3(CCN(C(=O)c4ccoc4)C3)C2)cn1 gave T. brucei: -13.41%; PfKRS1: -3.396%; LiHisRS: 0%; Toxoplasma: 12.95%. For CC(=O)N1CCCC(c2ccc(Nc3nc(C)cc(C)n3)cn2)C1 (configuration not stated) the result was T. brucei: 27.47%; PfKRS1: 0.7269%; LiHisRS: 9.489%; Toxoplasma: -3.716%. Cc1nnc([C@@H]2C[C@H]3CN(C(=O)c4sccc4C)C[C@H]3O2)[nH]1 gave PfKRS1: 9.216%; LiHisRS: 15.52%. Result for COc1cc(/C=C/c2ncc(C(=O)O)s2)cc(OC)c1 was T. brucei: -79.54%; PfKRS1: 2.056%; LiHisRS: 19.18%; Toxoplasma: 19.7%. COCCn1cnnc1CNc1cc(C)nc2c(C)c(C)nn12 gave T. brucei: -13.82%; PfKRS1: 5.311%; LiHisRS: 24.29%; Toxoplasma: -11.49%.

With CCOCCN1C[C@H](C(=O)Nc2cccnc2)[C@@H]2CCO[C@@H]2C1 the screen gave PfKRS1: 2.774%; LiHisRS: 16%. Result for CC(C(=O)Nc1ncccn1)N1CCc2[nH]nc(C(F)(F)F)c2C1 (configuration not stated) was T. brucei: -29.66%; PfKRS1: 3.767%; LiHisRS: 15.18%; Toxoplasma: 2.519%. With c1nc2n(c1CN1CCOCC1)CCN(C1CCOC1)CC2 (configuration not stated) the screen gave T. brucei: -183.8%; PfKRS1: -4.718%; LiHisRS: 21.05%; Toxoplasma: -3.38%. Result for CN(CCc1ccccn1)C(=O)Cn1cc(-c2ccccc2)nn1 was T. brucei: -41.5%; PfKRS1: 3.556%; LiHisRS: 4.145%; Toxoplasma: 4.246%. COc1ccc(CNC(C)c2cnc3cc(C)nn3c2C)cc1 (configuration not stated) read T. brucei: -58.04%; PfKRS1: 4.535%; LiHisRS: 3.448%; Toxoplasma: 8.077%. Result for O=C(Cc1ccsc1)N1CCC(c2n[nH]c3nccnc23)CC1 was T. brucei: 27.3%; PfKRS1: -1.194%; LiHisRS: 7.292%; Toxoplasma: -19.12%.

COc1ncc(CN(CCCN2CCOCC2)Cc2ccc(C)o2)cn1.O=C(O)CC(O)(CC(=O)O)C(=O)O read T. brucei: -12.51%; Toxoplasma: 17.18%. With COCC1c2c(cnn2C)CCN1Cc1ccsc1 (configuration not stated) the screen gave T. brucei: -35.86%; PfKRS1: 3.669%; LiHisRS: 12.82%; Toxoplasma: -6.328%. Result for c1cc(CN2CCOCC3(C2)CN(Cc2nccs2)CCO3)ccn1 (configuration not stated) was PfKRS1: -1.989%; LiHisRS: 0.885%. For [H][C@@]12CN(C(C)=O)C[C@]1(C(=O)N(C)C)CCC21CCN(S(C)(=O)=O)CC1 the result was Toxoplasma: -15.11%. Cc1nn(C)c2c(=O)n(C(C)C)c(NCC3CCCO3)nc12 (configuration not stated) gave T. brucei: -29.92%; PfKRS1: 1.578%; LiHisRS: 12.64%; Toxoplasma: 6.206%. With O=C(O)C(F)(F)F.[H][C@@]12COC[C@]1(c1nnc(C)o1)CN(Cc1cnn(C)c1)C2 the screen gave T. brucei: -62.81%; Toxoplasma: 0.7979%.

Result for Cc1noc(C2CCC3(CCN(C(=O)c4cnn(C)c4)CC3)O2)n1 (configuration not stated) was T. brucei: -39%; PfKRS1: 5.44%; LiHisRS: -2.778%; Toxoplasma: -9.358%. For COCC(=O)N1CCCC(c2cc(C(F)F)n3ncnc3n2)C1.Cl (configuration not stated) the result was T. brucei: 1.147%; Toxoplasma: 12.7%.

Repeated from the top, 3 entries:

structure,T. brucei,PfKRS1,LiHisRS,Toxoplasma
CCN1CCN(C)C(=O)C12CCN(Cc1cccc(C)c1)CC2,-,0.39%,5.825%,-
Cc1cc(N2CCCN(C(=O)Cc3csc(C)n3)CC2)ccn1,-11.66%,-0.3932%,17.31%,-4.962%
CCCn1ccnc1-c1cccc(NC2CCOC2)c1 (configuration not stated),-82.74%,10.83%,17.7%,9.28%